Source: the supplement of paper PMC5949888
Most values lie at the floor of the assay. Slopes are relative: functional sequences can read slightly below zero.

Each substance was assayed on Saccharomyces cerevisiae PS128 hsf1 delta, HSF1(1-493) fusion (assay: growth estimate (transactivation domain function in HSF1 fusion, heat-shock survival) (a.u. (slope of normalised read count over time)); higher = stronger growth at 37°C, i.e. more transactivation activity). Conditions: library: random library.

Row | Substance | growth estimate
1 | EDGIIVYTARVIKLFRSDTV | -0.218
2 | FLCRVD | < -0.25
3 | WKVEMIT | < -0.25
4 | TVSPSIQIFKA | < -0.25
5 | KTFAVPRFLGLWGILG | < -0.25
6 | AAAGAQCLPQHSDVQRVERV | < -0.25
7 | VILNVIPGGVSGSPACFCQA | < -0.25
8 | LGPIV | < -0.25
9 | WGWQSFADRASHASALVNRH | < -0.25
10 | GFSLVWDSPLL | -0.079
11 | VRSRMSPVVVDHPRSALQ | < -0.25
12 | PQRRKRDA | < -0.25
13 | CVSRKAFIPGTRRTHLRVCH | < -0.25
14 | HGALTLFICLHVSRCLFPSL | < -0.25
15 | ERASTAGDNLHI | < -0.25
16 | CSEEAG | < -0.25
17 | HMGPNTRLERGRG | < -0.25
18 | DKEGTL | < -0.25
19 | SVS | < -0.25
20 | FRQLINVYDVDFCQN | < -0.25
21 | PRNLTMTQSIKYRILER | < -0.25
22 | HGGSRSQKPRWPYRAQEVHT | -0.245
23 | QSGQRFMR | < -0.25

Row | Substance | growth estimate
24 | HEIERGY | < -0.25
25 | VYFDCWFNLFVQWQVAQLLS | < -0.25
26 | VLFAEDHTRRGMRPTAKFRE | < -0.25
27 | GRLPILLRYPRG | < -0.25
28 | SKL | < -0.25
29 | PVVQAAHMCWPFPLGTGSLG | < -0.25
30 | LRPPEYPQSLCLFIAERLTE | < -0.25
31 | TGNA | < -0.25
32 | SVTEKAMQRQL | < -0.25
33 | AFVPRNSFFERKTLNHLDSP | -0.241
34 | SIRPTSLRRPPAGTTRACRG | < -0.25
35 | TEDGSSTWGGYLSIR | < -0.25
36 | VGYFITMHALMKKGPLFFLF | < -0.25
37 | GPTCIQSSFSWGRRPRTCTV | < -0.25
38 | SALGGRYPTQIGQCDRTAAR | < -0.25
39 | LAPAGETYWLGVARFYERTL | < -0.25
40 | TPWGFSEETKRSGPVLKAGE | < -0.25
41 | MSLKGSPMKWGVIMHNRIPI | < -0.25
42 | FLPGQEVRLAVLICISGGYR | < -0.25
43 | RISVQEMGFESVFGLTFFET | -0.0584
44 | STWYTTNLPIGSVSTLRTCA | < -0.25
45 | FCPENTS | < -0.25
46 | QFLNAKSSDGINLVNPLVRV | < -0.25

Row | Substance | growth estimate
47 | SDQQETIPICCSVCCAMGEI | < -0.25
48 | DILYSALVRSLDPGYRYIRP | < -0.25
49 | DKQIQAGCPSDH | < -0.25
50 | SCVG | < -0.25
51 | SDVPPCSRTHVSTSPQHATS | < -0.25
52 | NYQVGIGFGIALIGQLNAGK | < -0.25
53 | PGHRGYEGAGDVTSIVVLMR | < -0.25
54 | LWKRSRSDLVNKAN | < -0.25
55 | RRR | < -0.25
56 | GRGRTALS | < -0.25
57 | TGAS | < -0.25
58 | LPKQSGA | < -0.25
59 | CAERGT | < -0.25
60 | SNEDGCRVMYRTV | < -0.25
61 | RVFRYVP | < -0.25
62 | SMGMIGFDHTPRQY | < -0.25
63 | KCWFLELALIPAGYSLGCAD | < -0.25
64 | HGPRDMLKSVSE | < -0.25
65 | LLGK | < -0.25
66 | LLS | < -0.25
67 | AANSFPIHVRSRHKAVGAIA | < -0.25
68 | GIVKGA | < -0.25
69 | DEGP | < -0.25

Row | Substance | growth estimate
70 | WRMAELGGSPDRLVTCSDYS | -0.228
71 | HVERLL | < -0.25
72 | SVLGVTGSQCPRGDV | < -0.25
73 | VSPNLGVRNISTVLRDTTTN | < -0.25
74 | YNPPWRCAQILRVWRV | < -0.25
75 | SSKFQLFSTGLYFASARSGN | < -0.25
76 | LLPLLRTFRLYMLTLYVRFR | < -0.25
77 | LDAT | < -0.25
78 | TQVPRQGNCYNREAGYRNLR | < -0.25
79 | HTVEVRHCVLSMNIIAGPPN | < -0.25
80 | CQTFAEQPSGSIHFELLTQC | < -0.25
81 | IIMCFPQARNTHLVDLRGIG | -0.246
82 | GQIAAGGIGSARRSEK | -0.245
83 | PSEIASVLQTVNNCLQGV | < -0.25
84 | YVALVARTSCSDRSTNPSEL | < -0.25
85 | NVALSGPL | < -0.25
86 | EGRRRVFGLAWLVASSGTRS | < -0.25
87 | VANVLERLAD | < -0.25
88 | LSRKICFRVKSCSGT | < -0.25
89 | GPGKDFRLNMLRTCR | < -0.25
90 | HIPIIIPQGT | < -0.25
91 | LWKQGAVPAG | < -0.25
92 | DRLTKDLTTSPEVVLLPGFD | < -0.25

Row | Substance | growth estimate
93 | PRD | < -0.25
94 | YHSAYSKNIRPP | < -0.25
95 | HSYPILESGAPRHNRQSNRN | < -0.25
96 | PPDREAFRGIFRVPLSRCQH | < -0.25
97 | QLI | < -0.25
98 | DTRTNEC | -0.243
99 | CDPEGVIGQSRYLLKRDRNC | < -0.25
100 | DQRPV | < -0.25
101 | RVHWVFRNFCRVGRLNGPLG | < -0.25
102 | CLRDGPYCARAYNYVFPVLM | < -0.25
103 | WIFRVYASQT | < -0.25
104 | VHGDSALVLSAVTRYVTRTY | < -0.25
105 | VSRRFHRSG | < -0.25
106 | VQSM | < -0.25
107 | MEEGGALHVRTTTWK | < -0.25
108 | AEYLTSLRRTGQLNNRRTYA | < -0.25
109 | FRSKSPQN | < -0.25
110 | WRCAHGYHWCAGCKSPFTGR | < -0.25
111 | DQLRQGELRPWRRSSSHIGL | < -0.25
112 | SDGLIVSY | < -0.25
113 | HTDGSTS | < -0.25
114 | SRSLGFSESCLCNHHKFWPS | < -0.25
115 | HRSSAKPLGKNKDNSSTWMQ | < -0.25

Row | Substance | growth estimate
116 | TVGVRVSVNSRRSCFGSADR | < -0.25
117 | FGCHSNVYIVVDAVASDVGR | < -0.25
118 | GPGH | < -0.25
119 | FRVDNVATWTMSRLRLSPRK | < -0.25
120 | PTPGRVTSVL | -0.212
121 | MVWGNVRTSWKQHSLP | < -0.25
122 | IREPLIQWAFPSEGPSFWRP | -0.246
123 | SIHSAMTNPKPPGHLRLSSV | < -0.25
124 | RDKSAHPDSGDVLFLTLLSD | 0.0903
125 | FRRIYFERVKLSNVYYDSRI | < -0.25
126 | LDQDRPGAVIPDRPVFKCHS | < -0.25
127 | SLRSSILLRGSHKNIKLL | < -0.25
128 | EWAPWRSILGPTSRRKTRGA | < -0.25
129 | PQAEGGGIPRLKTPSSRKFP | < -0.25
130 | DVVITKYRVIF | < -0.25
131 | DRRNW | < -0.25
132 | MYRGSDDKGPRELFACQGCD | -0.248
133 | VIGSGLGMSICQYADRELIR | < -0.25
134 | SNSGWKELIASWSPPVRGHL | < -0.25
135 | RVGFGRKSEAC | < -0.25
136 | REFK | < -0.25
137 | NPSTTLSEWHVGRGPMGVSF | < -0.25
138 | NACDWCGSQTAVSVRKHPSE | < -0.25

Row | Substance | growth estimate
139 | KNSSPSAP | < -0.25
140 | CFHDAMPRELGSAAIIDAYY | < -0.25
141 | ALHENY | < -0.25
142 | DTSHAATLAFYVMRNRPHTA | < -0.25
143 | RRKGKKTLPLVMFCSRTGPG | < -0.25
144 | LRGFPHYPQ | < -0.25
145 | VRSHSLSYAVRQSPQCGSSA | < -0.25
146 | EAVFVNPAKE | < -0.25
147 | ALEAGNEGISYYGLQSRSRC | < -0.25
148 | RNR | < -0.25
149 | VLLSMAL | < -0.25
150 | NLLAISHFRQKATAAC | < -0.25
151 | RKSAISGYKVDIGR | < -0.25
152 | SDHALIRQG | < -0.25
153 | VVKRLEG | < -0.25
154 | MCTDFGGYRVTRNRRSRCSF | < -0.25
155 | VTDSRLGSRVALAYRDVCAG | < -0.25
156 | PPQQEATGHRVR | < -0.25
157 | RNPL | < -0.25
158 | TVRGYMTTHRFVVNEVDGAL | < -0.25
159 | GRAKEARMDGSGGPVRAMIR | < -0.25
